Here are results for one substance from paper doi:10.1101/2025.11.24.690135.

Amino acid sequences for entries named in this document (tags omitted). A change or cut given only in a name is not applied to a line headed by its entry.
UniProt P18848, whole entry, stated change not applied: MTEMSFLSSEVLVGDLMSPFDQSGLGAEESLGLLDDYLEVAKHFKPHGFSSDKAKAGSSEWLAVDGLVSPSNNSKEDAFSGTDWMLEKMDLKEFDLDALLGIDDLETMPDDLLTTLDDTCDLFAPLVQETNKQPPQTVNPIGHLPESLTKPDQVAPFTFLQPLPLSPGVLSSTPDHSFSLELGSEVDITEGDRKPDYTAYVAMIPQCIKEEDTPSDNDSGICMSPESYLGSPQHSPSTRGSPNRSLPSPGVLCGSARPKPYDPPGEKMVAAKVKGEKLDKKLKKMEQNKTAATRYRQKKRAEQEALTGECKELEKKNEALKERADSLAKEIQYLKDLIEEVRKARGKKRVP

No constants are given. Whether binding was seen depends on the method and setting. In cells and extracts the contact can be indirect. These calls come from enrichment with a bait or labelling near it, and not all partners need be listed.

The target in this assay is activating transcription factor 4, endogenous (human (endogenous in iPSC-RPE)) (UniProt P18848). The experiment in a line: affinity purification with mass spectrometry.

With “HSP90AA1, endogenous (from UniProt P07900 1-732)”, the binding result is “binds”.
